Laboratory results from paper PMC6925144, “A prospective compound screening contest identified broader inhibitors for Sirtuin 1” (Scientific Reports, 2019).
Whole data set: some 3,200 compounds, median “TSA(without NAD+) / Primary screening (TSA) / delta Tm (K)” near -0.07, cut for the highest 2% near 0.37. This is one part of the list.

Chains of the proteins cited; added tags and fusions are not shown. Residues count along the entry.
UniProt Q96EB6, 2-747 limits assumed: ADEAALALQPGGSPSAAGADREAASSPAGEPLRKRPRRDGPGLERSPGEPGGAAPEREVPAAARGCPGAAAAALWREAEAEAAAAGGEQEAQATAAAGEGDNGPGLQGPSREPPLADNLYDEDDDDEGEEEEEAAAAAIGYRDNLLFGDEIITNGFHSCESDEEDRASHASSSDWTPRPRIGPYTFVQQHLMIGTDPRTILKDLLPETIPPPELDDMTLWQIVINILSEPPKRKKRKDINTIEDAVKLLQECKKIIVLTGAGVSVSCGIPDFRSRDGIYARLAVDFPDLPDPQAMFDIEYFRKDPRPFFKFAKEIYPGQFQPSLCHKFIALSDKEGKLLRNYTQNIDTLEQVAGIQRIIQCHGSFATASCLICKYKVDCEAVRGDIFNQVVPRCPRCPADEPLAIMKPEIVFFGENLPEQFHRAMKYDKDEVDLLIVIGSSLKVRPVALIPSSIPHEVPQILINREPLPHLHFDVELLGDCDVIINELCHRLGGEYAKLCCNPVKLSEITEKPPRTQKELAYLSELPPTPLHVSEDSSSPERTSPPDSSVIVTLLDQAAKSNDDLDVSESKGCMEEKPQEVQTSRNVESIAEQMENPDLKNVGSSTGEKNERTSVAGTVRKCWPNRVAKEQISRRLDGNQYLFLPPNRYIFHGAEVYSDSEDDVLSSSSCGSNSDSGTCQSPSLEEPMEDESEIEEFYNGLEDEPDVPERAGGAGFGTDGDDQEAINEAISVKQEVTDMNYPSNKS

Each molecule was assayed against NAD-dependent deacetylase Sirtuin 1 (human, UniProt Q96EB6) (assay: primary screen, delta tm). Settings: 10 µM.
Set-up: single well (n = 1)
In short: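 Thermal shift of Sirtuin 1 measured without NAD+, compound at 10 µM (n = 1); value is ΔTm, with hits defined as ΔTm > 0.45 K or < −1.5 K. Hits retested at 5, 10, 20 µM (n = 4) and counterscreened on bovine carbonic anhydrase and ABL1 SH2 domain.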

| SMILES | TSA(without NAD+) / Primary screening (TSA) / delta Tm (K) |
| --- | --- |
| Cc1sc2ncnc(N3CCC(C(=O)N4CCC(C(N)=O)CC4)CC3)c2c1C | 0.06 K |
| CC(C)c1ccc(OCc2nnc(SCC(=O)Nc3ccccc3-c3ccccc3)n2N)cc1 | -0.15 K |
| O=C(O)C1CC(=O)N(c2ccc(S(=O)(=O)N3CCCc4cccc(F)c43)cc2)C1 (stereo not drawn) | 0.07 K |
| CC(=O)N(C)CC(=O)NCC1CC2c3ccccc3C1c1ccccc12 (stereo not drawn) | -0.08 K |
| CC1CCN(C)c2ccccc2N1CCOc1ccc(S(N)(=O)=O)cc1 (stereo not drawn) | -0.02 K |
| CC(OC(=O)c1cccc(S(=O)(=O)NCc2ccccc2)c1)C(=O)NC12CC3CC(CC(C3)C1)C2 (stereo not drawn) | -0.03 K |
| O=C(O)CCn1cc(C=C2C(=O)NC(=S)NC2=O)c(-c2cccc(Br)c2)n1 | -0.03 K |
| O=C(c1cnc2ccccc2n1)N1CCCC1c1nc2ccccc2s1 (stereo not drawn) | -0.04 K |
| CN(C)c1ccc([N+](=O)[O-])cn1 | -0.17 K |
| N#Cc1ccccc1Sc1ccccc1C(=O)Nc1ccc(-c2cn3cccnc3n2)cc1 | -0.14 K |
| O=C(CCC(=O)c1ccccc1)Nc1ccccc1Cc1ccccc1 | -0.15 K |
| CCC(=O)N1N=C(c2ccco2)CC1c1ccc(N(C)C)cc1 (stereo not drawn) | 0.08 K |
| O=C(NCc1nnc2ccccn12)c1cn(Cc2ccccc2)nc1-c1ccc(Cl)cc1 | 0.06 K |
| C=CCOc1ccc(C2C(C(=O)c3ccc(C)o3)=C(O)C(=O)N2CCCN2CCOCC2)cc1 (stereo not drawn) | -0.01 K |
| Cc1cccc(Cc2cnc(NC(=O)c3ccc(COc4ccc5c(C)cc(=O)oc5c4)cc3)s2)c1 | 0.07 K |
| N=c1nc[nH]c2c1ncn2CCC(N)=O | -0.07 K |
| Cc1ccc(Cn2c(=O)c3ccccc3n3c(SCC4CCCCO4)nnc23)cc1 (stereo not drawn) | -0.22 K |
| CCS(=O)(=O)CCNC(=O)/C=C/c1cccc2ccccc12 | -0.13 K |
| O=C(Nc1cccc(S(=O)(=O)N2CCOCC2)c1)c1ccccc1COc1ccccc1 | -0.13 K |
| CC(C(=O)c1c[nH]c2ccccc12)N(C)CCOc1ccccc1F (stereo not drawn) | -0.08 K |
| CC(CN)C1CC1 (stereo not drawn) | -0.18 K |
| O=C(CSc1nnc(NCc2ccco2)s1)Nc1nc(-c2ccc(F)cc2)cs1 | -0.13 K |
| Cc1cccc2nc(C(=O)Nc3nc(SCc4ccc(Cl)cc4)n[nH]3)cn12 | -0.03 K |
| COC(=O)c1ccc(C2C(C(=O)c3sc(C)nc3C)=C(O)C(=O)N2CCN2CCOCC2)cc1 (stereo not drawn) | -0.03 K |

Individual results from the list.
For TSA(without NAD+) / Primary screening (TSA) / delta Tm (K), O=C(O)CCn1cc(C=C2C(=O)NC(=S)NC2=O)c(-c2cccc(Br)c2)n1 has -0.03 K
For TSA(without NAD+) / Primary screening (TSA) / delta Tm (K), N#Cc1ccccc1Sc1ccccc1C(=O)Nc1ccc(-c2cn3cccnc3n2)cc1 has -0.14 K
